The record followed here is PubChem BioAssay AID2685 (National Center for Advancing Translational Sciences (NCATS), 2010).

A short description of the experiment: qHTS Assay for Lipid Storage Modulators in Drosophila S3 Cells.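 As to cell number change: cells counted by Cell Tracker Red CMTPX staining in the red channel.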 The conditions noted are these: BODIPY lipid droplet fluorescence, 18-24 h; for cell number change: measured here: cell count max response, cells fed with added oleic acid. The method in brief:
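Laser-scanning cytometry quantifies lipid droplet accumulation (500–530 nm total intensity; droplet/cell object ratio) in oleic acid-fed (400 uM added) Drosophila S3 cells treated with a concentration series. 20 uM Triacsin C defined 100% inhibition.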
A general note: Quantitative high-throughput screening tests each substance at several concentrations.

The mark [1] stands for this setting: measured here: cell number channel AC50, cells fed with added oleic acid.
Where [2] appears, read: measured here: lipid fluorescence (Fed channel) AC50, cells fed with added oleic acid.

Each structure is given as a SMILES string. Some of the results follow. Further columns of the screen follow, without active or inactive calls. Compounds called inactive in the main read-out are mostly missing here. The note in brackets gives the kind of curve behind each potency; many fits are weak.

Regarding `Cc1cc(NS(=O)(=O)c2ccc(NC(=O)c3cccnc3)cc2)nc(C)n1`, the cell number change is -7.89%.
Turning to `CCOc1cc(CN2CCN(c3cccc(C(F)(F)F)c3)CC2)ccc1OC`, the cell number change stood at 151%. Under setting [1], the AC50 (commonly the midpoint of the concentration-response curve, whichever way the signal moves) is 20.6 µM [rising, partial curve]. The AC50 under setting [2] is 20.6 µM [rising, partial curve].
For the compound `CC(C)(C)C1CCc2c(C(=O)N/N=C/c3cccs3)csc2C1` (stereo unspecified), the cell number change is -7.31%. In addition, the AC50 under setting [2] is 29.1 µM [falling, single point].
Take `CN(CC1CCCO1)S(=O)(=O)c1ccc(C(=O)Nc2ccc(F)cc2)cc1` (stereo unspecified): the AC50 under setting [2] is 10.3 µM [falling, partial curve, poor fit].
For the compound `O=C(O)C1(c2ccccc2)CCN(S(=O)(=O)c2ccc(Br)cc2)CC1`, the cell number change was 10.2%.
In the case of `CC(C)C[C@H](NC(=O)c1nc[nH]c1C(=O)N1CCN(c2ccccc2)CC1)C(=O)OCc1ccccc1`, the cell number change was 11.1%. In addition, under setting [2], the AC50 was 10.3 µM [rising, single point].
`CCOC(=O)N1CCC(NC(=S)Nc2ccc3nc(N4CCN(CC)CC4)cc(C)c3c2)CC1`: the cell number change is 15%. Moreover, the AC50 under setting [2] is 13 µM [rising, partial curve].
For the compound `CC1=C([N+](=O)[O-])C(c2cccc(Br)c2)C2=C(N1)c1ccccc1C2=O` (stereo unspecified), the cell number change is -20.6%. For the same compound, the AC50 under setting [2] was 0.103 µM [rising, full curve, poor fit].
`CNC(=O)NC(=O)C(C)OC(=O)CCCSc1nc2ccccc2s1` (stereo unspecified): the cell number change was -54.5%. Besides, the AC50 under setting [1] is 0.184 µM [falling, full curve, poor fit]. Moreover, the AC50 under setting [2] is 5.8 µM [falling, full curve].
On to `COc1ccc(NC(=O)C2CCCN(S(=O)(=O)c3ccc4[nH]c(=O)ccc4c3)C2)cc1OC` (stereo unspecified), for which the cell number change was determined as 14%. Besides, the AC50 under setting [2] is 6.51 µM [falling, single point].
As for `CCSc1nc2sc3c(c2c(=O)n1-c1ccc(C)cc1)CCN(C)C3`, the cell number change was found to be 6.94%. In addition, the AC50 under setting [2] was 0.58 µM [falling, single point].
Turning to `FC(F)(F)c1cccc(OCc2nnc3n2CCC3)c1`, under setting [2], the AC50 is 2.91 µM [falling, partial curve, poor fit].
With `CCCSC1=C(C#N)C(c2ccc(O)c(OC)c2)CC(=O)N1` (stereo unspecified), the cell number change was -0.368%.
In the case of `CCOc1ccc(CC(=O)Nc2sc(Cc3ccccc3)cc2C(N)=O)cc1OCC`, the AC50 under setting [2] is 0.731 µM [rising, partial curve, poor fit].
As for `NC(=O)c1ccc(Cn2c(C(=O)c3ccc(Cl)cc3)c3ccccc3[n+]2[O-])cc1`, the cell number change is 9.11%. Also, the AC50 under setting [1] was 2.06 µM [falling, single point].
For `O=C(NCCn1c(C(F)(F)F)nc2ccccc21)[C@H]1CCCN1c1nc(CN2CCCCC2)cs1`, the cell number change is 20.1%. The AC50 under setting [2] is 29.1 µM [rising, single point].
As to `O=C(CSc1nnc(CNC(=O)c2c(F)cccc2Cl)o1)NCc1ccccc1`, the cell number change amounted to 21%.
For `Cc1ccc2c(NC(=S)NC(=O)c3ccccc3)cccc2n1`, the cell number change was -0.348%. The AC50 under setting [1] was 2.06 µM [rising, partial curve]. Besides, under setting [2], the half-maximal activity concentration (AC50) was 0.731 µM [rising, full curve, poor fit].
Turning to `COc1ccccc1-c1cc(C(=O)NCc2ccc(Cl)cc2)no1`, the cell number change amounted to 21.3%. Also, the AC50 under setting [1] is 0.731 µM [rising, single point].
On to `CCNc1nc(NC(C)C)nc(N(C#N)Cc2ccccc2)n1`, for which the cell number change is -4.69%.
With `COc1cccc(CN2CCc3ccc(NC(=O)CCc4ccc(C)cc4)cc3C2)c1O`, the cell number change stood at 11.2%. For the same compound, the AC50 under setting [2] is 1.84 µM [rising, partial curve, poor fit].
Take `Cc1ccnc(NS(=O)(=O)c2cnc(Cl)c(Br)c2)c1`: the cell number change is -12.7%. For the same compound, the AC50 under setting [2] is 3.66 µM [falling, single point].
For the compound `CCN(CC)c1ccc(CN(C(=O)c2cccs2)C2CCS(=O)(=O)C2)cc1` (stereo unspecified), under setting [2], the AC50 was 18.4 µM [falling, single point].
Regarding `CC(=O)Nc1ccc(NC(=O)c2nc(-c3ccccc3)oc2C)cc1`, the cell number change was found to be 4.4%.
As to `CCn1cc(S(=O)(=O)Nc2cccnc2)cn1`, the cell number change is -16.8%. Also, the AC50 under setting [2] was 11.6 µM [falling, single point].
As for `CC(=O)Oc1ccc(C(=O)Nc2cc(C)on2)cc1`, the cell number change was -22.2%.
The same measure, in the same setting: next, `Cc1cc(S(=O)(=O)N2CCCC2C(=O)N2CCOCC2)c(C)cc1Cl` (stereo unspecified): -1.88%.
In the case of `O=C(/C=C/c1ccco1)NC1=NCCS1`, the cell number change was -0.445%. The AC50 under setting [1] was 2.59 µM [rising, single point].
`CCc1c(-c2ccccc2)nc2nc(C)c(C)nn12`: the cell number change amounted to 49.6%. In addition, under setting [1], the AC50 is 14.6 µM [rising, single point]. The AC50 under setting [2] was 0.82 µM [falling, full curve].
As for `COc1cccc(Oc2coc3cc(OC(=O)N4CCOCC4)ccc3c2=O)c1`, the cell number change is -26.1%.
For `CSc1ccccc1NC(=O)CN(C)C(=O)c1ccc(-n2cccn2)cc1`, the cell number change is 21.9%. Further, the AC50 under setting [2] is 29.1 µM [rising, single point].
With `COc1cccc(N(C(=O)Cc2cccs2)C(C(=O)NC2CCCC2)c2ccncc2)c1` (stereo unspecified), the cell number change was -8.97%. Also, the AC50 under setting [1] was 5.8 µM [rising, single point].
For `Cc1ccc2c(c1)C(=O)CC(c1ccc3c(c1)OCCO3)O2` (stereo unspecified), the cell number change is 20.7%. For the same compound, under setting [2], the half-maximal activity concentration (AC50) is 29.1 µM [falling, single point].
In the case of `CCOC(=O)c1oc2cccc(O)c2c1CN1CCOCC1`, the cell number change was -32%. In addition, the AC50 under setting [1] is 5.8 µM [falling, full curve, poor fit].
Consider `O=C(C1CC1)N1CCc2cc(Br)cc(S(=O)(=O)NCc3ccc4c(c3)OCO4)c21`, for which the cell number change is -15%. The AC50 under setting [2] is 20.6 µM [rising, single point].
As for `Cc1cccc(N2CCN(C(=O)/C=C/c3cccs3)CC2C)c1` (stereo unspecified), the cell number change was -21.5%. Under setting [1], the AC50 is 0.00461 µM [falling, full curve, poor fit].
Regarding `COc1ccccc1N1C(=O)[C@@H]2[C@H](C1=O)[C@H](C(=O)c1ccc(OC(C)=O)cc1)N1N=CC=C[C@@H]21`, the cell number change stood at 20.6%. For the same compound, under setting [2], the AC50 is 7.31 µM [rising, partial curve, poor fit].
For the compound `CCOC(=O)N1CCc2c(sc(NC(=O)c3ccc(Cl)s3)c2C(N)=O)C1`, the cell number change was -27.6%. Further, the AC50 under setting [2] is 20.6 µM [falling, single point].
Turning to `O=S(=O)(Nc1ccc(O)c2ccccc12)c1cccs1`, the cell number change came to 18.4%. Further, under setting [2], the concentration at half-maximal activity (AC50) is 1.58 µM [rising, partial curve].
On to `O=C(O)/C=C/c1ccc(S(=O)(=O)Nc2ccc(C(=O)NCC(=O)O)cc2)cc1`, for which the cell number change was -27.2%. In addition, the AC50 under setting [1] was 5.17 µM [rising, single point].
